Experimental data as given in patent US20160046678A1 (ZYNGENIA, published 2016).
These are yes or no findings as the source states them, for the method shown. Some binding calls cover weakened binding; strength is not graded here.

Sequences of proteins named here, by UniProt entry; tags and fusion partners are left off. Residues count along the entry.
UniProt P05231, residues 30-212: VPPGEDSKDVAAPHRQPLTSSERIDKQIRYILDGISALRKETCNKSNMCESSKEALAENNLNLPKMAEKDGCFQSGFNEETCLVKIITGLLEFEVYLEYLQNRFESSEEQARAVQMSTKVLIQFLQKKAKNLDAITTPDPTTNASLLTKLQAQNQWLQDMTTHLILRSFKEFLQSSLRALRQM

B1: ILB564 (peptide)
peptide: FQGHWHIKKQGQAGQGSATGGSGSTASSGSGSSFNEDCMWDPLLMDCAYSP
B2: ILB620 (peptide)
peptide: SCFGDLQICWGQAGQGSATGGSGSTASSGSGSSFNEDCMWDPLLMDCAYSP

molecular target: IL6 (UniProt P05231); experiment: MRD identification, Example 48

Row | Binder | binding
1 | SIYISYRQNHGQAGQGSATGGSGSTASSFNEDCMWDPLLMDCAYSP [ILB561] | binds
2 | TYYTHTAWDRGQAGQGSFNEDCMWDPLLMDCAYSP [ILB562] | binds
3 | LLVEFFKHTYGQAGQGSFNEDCMWDPLLMDCAYSP [ILB563] | binds
4 | B1 | binds
5 | FHLPIHWHYQGQAGQGSATGGSSFNEDCMWDPLLMDCAYSP [ILB565] | binds
6 | LIVLQPKNMVGQAGQGSFNEDCMWDPLLMDCAYSP [ILB566] | binds
7 | TYSWRDWGMYGQAGQGSFNEDCMWDPLLMDCAYSP [ILB567] | binds
8 | DGSHPIVVVTEWFGQAGQGSFNEDCMWDPLLMDCAYSP [ILB568] | binds
9 | VYWQAMNQDYGQAGQGSFNEDCMWDPLLMDCAYSP [ILB569] | binds
10 | PDSWCHTLYWDLLYCVNQE [ILB570] | binds
11 | DCAMWFMFKDQGQAGQGSATGGSSFNEDCMWDPLLMDCAYSP [ILB572] | binds
12 | NNMHPLWPISGQAGQGSATGGSSFNEDCMWDPLLMDCAYSP [ILB573] | binds
13 | FWYSWNPQWDGQAGQGSFNEDCMWDPLLMDCAYSP [ILB574] | binds
14 | EGYWRGPHWEGQAGQGSFNEDCMWDPLLMDCAYSP [ILB576] | binds
15 | YRMKWDFMLHGQAGQGSFNEDCMWDPLLMDCAYSP [ILB577] | binds
16 | WWWDQHMLENGQAGQGSATGGSGSTASSFNEDCMWDPLLMDCAYSP [ILB578] | binds
17 | PCHWAQQPCAGQAGQGSFNEDCMWDPLLMDCAYSP [ILB579] | binds
18 | FFDFFSFSNSGQAGQGSATGGSSFNEDCMWDPLLMDCAYSP [ILB580] | binds
19 | VWTAFIQMNSGQAGQGSFNEDCMWDPLLMDCAYSP [ILB581] | binds
20 | QIQQFSFWVQGQAGQGSFNEDCMWDPLLMDCAYSP [ILB582] | binds

Row | Binder | binding
21 | LFIPYMAQIWGQAGQGSFNEDCMWDPLLMDCAYSP [ILB583] | binds
22 | MTTMYHIIVLGQAGQGSATGGSGSTASSFNEDCMWDPLLMDCAYSP [ILB584] | binds
23 | GCSMCHMMMVKWHRGQAGQGSFNEDCMWDPLLMDCAYSP [ILB585] | binds
24 | EQHVDWYWVPQGSFNEDCMWDPLLMDCAYSP [ILB586] | binds
25 | NQTQPKRPTDGQAGQGSFNEDCMWDPLLMDCAYSP [ILB587] | binds
26 | ELGGRKSMLIGQAGQGSFNEDCMWDPLLMDCAYSP [ILB588] | binds
27 | EAWRELRWWNGQAGQGSFNEDCMWDPLLMDCAYSP [ILB589] | binds
28 | YCTDRVDICMGQAGQGSATGGSGSTASSFNEDCMWDPLLMDCAYSP [ILB590] | binds
29 | LIVPAPLTWWGQAGQGSFNEDCMWDPLLMDCAYSP [ILB591] | binds
30 | WVPDMWMHEWGQAGQGSFNEDCMWDPLLMDCAYSP [ILB592] | binds
31 | YQDSWITGMQGQAGQGSATGGSSFNEDCMWDPLLMDCAYSP [ILB593] | binds
32 | YEEHCRLFPADWICSLLQ [ILB594] | binds
33 | VCQDEVYMWCEGQAGQGSATGGSSFNEDCMWDPLLMDCAYSP [ILB595] | binds
34 | ADSWCHTLYWNLRHCEIQE [ILB596] | binds
35 | HHQQSMYWLEGQAGQGSATGGSSFNEDCMWDPLLMDCAYSP [ILB597] | binds
36 | AEHTFALQYVGQAGQGSFNEDCMWDPLLMDCAYSP [ILB598] | binds
37 | YTTYNWKPWQGQAGQGSATGGSSFNEDCMWDPLLMDCAYSP [ILB599] | binds
38 | ACDTQHHGCMGQAGQGSATGGSGSTASSFNEDCMWDPLLMDCAYSP [ILB600] | binds
39 | EVVGVGWFLNGQAGQGSFNEDCMWDPLLMDCAYSP [ILB601] | binds
40 | PESWCHTLYWNLQHCLSQE [ILB602] | binds

Row | Binder | binding
41 | IDNKYEGMVLGQAGQGSFNEDCMWDPLLMDCAYSP [ILB603] | binds
42 | HWMTYQFWIQGQAGQGSATGGSSFNEDCMWDPLLMDCAYSP [ILB604] | binds
43 | TCELMQAWTHLGQAGQGSATGGSSFNEDCMWDPLLMDCAYSP [ILB605] | binds
44 | YYPQHIDHIMGQAGQGSATGGSSFNEDCMWDPLLMDCAYSP [ILB606] | binds
45 | MPLDDQPFLEGQAGQGSFNEDCMWDPLLMDCAYSP [ILB607] | binds
46 | HTEFQRLEWPQGSATGGSSFNEDCMWDPLLMDCAYSP [ILB608] | binds
47 | IQWPSMMEIHGQAGQGSFNEDCMWDPLLMDCAYSP [ILB609] | binds
48 | QTGWGPKYMWGQAGQGSFNEDCMWDPLLMDCAYSP [ILB610] | binds
49 | QSHIHLEKWLGQAGQGSFNEDCMWDPLLMDCAYSP [ILB611] | binds
50 | QCWIYPYDGLCNGQAGQGSATGGSSFNEDCMWDPLLMDCAYSP [ILB612] | binds
51 | TCTHLVKTVLIGQAGQGSFNEDCMWDPLLMDCAYSP [ILB613] | binds
52 | PLYTVWKWSGGQAGQGSATGGSGSTASSFNEDCMWDPLLMDCAYSP [ILB614] | binds
53 | FNFERWEQKPQGSFNEDCMWDPLLMDCAYSP [ILB615] | binds
54 | YVLQQVEMQEGQAGQGSFNEDCMWDPLLMDCAYSP [ILB616] | binds
55 | SMTKYKALYHGQAGQGSFNEDCMWDPLLMDCAYSP [ILB617] | binds
56 | QDNIAYQGWWGQAGQGSFNEDCMWDPLLMDCAYSP [ILB618] | binds
57 | MDHIWQHGQLGQAGQGSATGGSSFNEDCMWDPLLMDCAYSP [ILB619] | binds
58 | B2 | binds
